Measured values taken from the supplement of paper PMC10849652.
This is one part of the list.

Chains of the proteins cited; added tags and fusions are not shown. Lines headed by an entry give the natural chain unless they say otherwise; changes in a name come on top.
UniProt Q9Y2B2: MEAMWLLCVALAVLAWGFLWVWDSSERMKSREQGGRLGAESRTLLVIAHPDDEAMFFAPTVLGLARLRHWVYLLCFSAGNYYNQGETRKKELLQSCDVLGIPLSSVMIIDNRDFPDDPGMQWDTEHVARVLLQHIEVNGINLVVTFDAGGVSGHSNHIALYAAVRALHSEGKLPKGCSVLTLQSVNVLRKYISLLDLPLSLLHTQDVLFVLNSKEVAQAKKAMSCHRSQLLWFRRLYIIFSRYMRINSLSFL
UniProt Q8TEQ8: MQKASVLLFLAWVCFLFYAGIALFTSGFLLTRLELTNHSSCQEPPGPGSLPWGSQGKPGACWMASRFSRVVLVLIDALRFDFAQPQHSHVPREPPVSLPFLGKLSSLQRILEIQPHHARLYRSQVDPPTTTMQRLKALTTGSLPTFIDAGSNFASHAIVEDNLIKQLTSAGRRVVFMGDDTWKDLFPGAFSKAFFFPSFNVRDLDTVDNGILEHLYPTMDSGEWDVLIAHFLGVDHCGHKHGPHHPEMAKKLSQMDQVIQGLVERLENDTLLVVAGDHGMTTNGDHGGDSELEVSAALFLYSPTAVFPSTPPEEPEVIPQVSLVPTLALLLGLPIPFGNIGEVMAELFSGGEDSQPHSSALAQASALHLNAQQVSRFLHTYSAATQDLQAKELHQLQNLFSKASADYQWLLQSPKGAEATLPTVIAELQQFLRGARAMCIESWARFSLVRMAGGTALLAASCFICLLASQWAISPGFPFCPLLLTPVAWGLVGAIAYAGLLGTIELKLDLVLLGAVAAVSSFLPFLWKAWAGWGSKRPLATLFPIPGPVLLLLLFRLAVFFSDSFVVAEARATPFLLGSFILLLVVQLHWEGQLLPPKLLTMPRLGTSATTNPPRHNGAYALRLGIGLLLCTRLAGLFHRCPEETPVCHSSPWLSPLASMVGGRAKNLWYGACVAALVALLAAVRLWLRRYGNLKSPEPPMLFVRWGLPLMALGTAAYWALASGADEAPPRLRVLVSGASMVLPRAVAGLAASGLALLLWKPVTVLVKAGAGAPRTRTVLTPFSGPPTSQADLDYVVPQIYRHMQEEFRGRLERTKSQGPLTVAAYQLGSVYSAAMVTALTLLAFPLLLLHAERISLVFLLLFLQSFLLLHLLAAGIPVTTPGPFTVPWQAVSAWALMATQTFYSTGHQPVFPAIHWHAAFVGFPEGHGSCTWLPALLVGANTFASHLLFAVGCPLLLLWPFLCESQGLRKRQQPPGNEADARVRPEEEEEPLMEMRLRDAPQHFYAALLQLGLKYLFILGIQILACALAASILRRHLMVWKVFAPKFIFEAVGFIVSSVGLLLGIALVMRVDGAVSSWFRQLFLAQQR
UniProt P37287: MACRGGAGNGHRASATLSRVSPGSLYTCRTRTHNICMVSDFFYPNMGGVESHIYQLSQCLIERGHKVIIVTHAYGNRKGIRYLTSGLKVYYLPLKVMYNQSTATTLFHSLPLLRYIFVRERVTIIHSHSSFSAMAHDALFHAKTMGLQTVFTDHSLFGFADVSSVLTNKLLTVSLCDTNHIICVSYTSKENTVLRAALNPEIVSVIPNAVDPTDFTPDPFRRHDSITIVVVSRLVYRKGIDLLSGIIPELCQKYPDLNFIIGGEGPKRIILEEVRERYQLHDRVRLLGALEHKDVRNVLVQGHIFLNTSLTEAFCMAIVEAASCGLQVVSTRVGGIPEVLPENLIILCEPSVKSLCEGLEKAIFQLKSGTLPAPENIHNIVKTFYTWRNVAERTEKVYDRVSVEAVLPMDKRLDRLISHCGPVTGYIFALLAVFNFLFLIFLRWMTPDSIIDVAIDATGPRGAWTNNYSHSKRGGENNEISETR
UniProt P16885: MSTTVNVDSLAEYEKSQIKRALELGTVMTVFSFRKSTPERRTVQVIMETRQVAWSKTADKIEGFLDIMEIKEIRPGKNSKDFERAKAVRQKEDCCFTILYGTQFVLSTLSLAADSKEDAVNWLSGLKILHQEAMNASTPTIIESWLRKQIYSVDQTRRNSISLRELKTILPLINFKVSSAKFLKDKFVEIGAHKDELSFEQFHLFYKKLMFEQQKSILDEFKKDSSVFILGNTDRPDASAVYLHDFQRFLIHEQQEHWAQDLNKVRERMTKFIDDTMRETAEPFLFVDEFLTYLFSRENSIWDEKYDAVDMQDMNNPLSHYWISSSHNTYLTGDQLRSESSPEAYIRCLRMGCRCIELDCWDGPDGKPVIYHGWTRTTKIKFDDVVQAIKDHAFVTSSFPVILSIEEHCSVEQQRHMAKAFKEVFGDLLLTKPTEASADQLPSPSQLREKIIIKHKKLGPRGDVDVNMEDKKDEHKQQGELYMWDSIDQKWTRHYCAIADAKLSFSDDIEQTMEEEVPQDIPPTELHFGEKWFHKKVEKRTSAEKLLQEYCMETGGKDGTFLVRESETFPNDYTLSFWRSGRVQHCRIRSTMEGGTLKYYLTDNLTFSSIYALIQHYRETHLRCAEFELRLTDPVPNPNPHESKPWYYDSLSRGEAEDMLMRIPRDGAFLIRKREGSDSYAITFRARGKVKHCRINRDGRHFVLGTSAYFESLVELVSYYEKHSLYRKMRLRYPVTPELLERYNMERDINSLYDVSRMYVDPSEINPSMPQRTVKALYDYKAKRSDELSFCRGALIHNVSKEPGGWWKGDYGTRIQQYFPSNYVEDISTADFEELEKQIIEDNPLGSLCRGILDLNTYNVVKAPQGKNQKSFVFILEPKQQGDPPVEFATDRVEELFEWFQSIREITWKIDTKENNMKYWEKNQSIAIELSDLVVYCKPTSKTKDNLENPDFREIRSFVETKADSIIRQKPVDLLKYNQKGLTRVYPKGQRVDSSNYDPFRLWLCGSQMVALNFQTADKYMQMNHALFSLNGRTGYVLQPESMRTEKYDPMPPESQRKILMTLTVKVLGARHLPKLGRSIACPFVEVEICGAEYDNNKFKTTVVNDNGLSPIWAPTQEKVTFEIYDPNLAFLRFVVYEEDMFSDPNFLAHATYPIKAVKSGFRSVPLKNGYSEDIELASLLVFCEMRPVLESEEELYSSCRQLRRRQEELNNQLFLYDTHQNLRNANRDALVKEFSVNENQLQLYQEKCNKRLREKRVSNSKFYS
UniProt P07205: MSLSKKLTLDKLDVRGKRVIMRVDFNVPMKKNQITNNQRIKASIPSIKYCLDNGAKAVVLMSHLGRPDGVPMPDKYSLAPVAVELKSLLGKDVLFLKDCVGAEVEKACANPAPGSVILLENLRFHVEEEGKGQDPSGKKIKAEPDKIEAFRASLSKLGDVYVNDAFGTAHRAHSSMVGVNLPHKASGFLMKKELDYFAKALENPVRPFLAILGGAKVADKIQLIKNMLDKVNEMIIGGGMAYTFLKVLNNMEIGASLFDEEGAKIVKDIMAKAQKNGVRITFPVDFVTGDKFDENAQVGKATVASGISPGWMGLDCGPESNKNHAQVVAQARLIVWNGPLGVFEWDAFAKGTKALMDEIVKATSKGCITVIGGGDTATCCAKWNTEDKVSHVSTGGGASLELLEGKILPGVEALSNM
UniProt Q9C010: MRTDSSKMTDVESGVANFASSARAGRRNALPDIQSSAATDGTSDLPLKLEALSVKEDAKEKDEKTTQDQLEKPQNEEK
UniProt Q99755: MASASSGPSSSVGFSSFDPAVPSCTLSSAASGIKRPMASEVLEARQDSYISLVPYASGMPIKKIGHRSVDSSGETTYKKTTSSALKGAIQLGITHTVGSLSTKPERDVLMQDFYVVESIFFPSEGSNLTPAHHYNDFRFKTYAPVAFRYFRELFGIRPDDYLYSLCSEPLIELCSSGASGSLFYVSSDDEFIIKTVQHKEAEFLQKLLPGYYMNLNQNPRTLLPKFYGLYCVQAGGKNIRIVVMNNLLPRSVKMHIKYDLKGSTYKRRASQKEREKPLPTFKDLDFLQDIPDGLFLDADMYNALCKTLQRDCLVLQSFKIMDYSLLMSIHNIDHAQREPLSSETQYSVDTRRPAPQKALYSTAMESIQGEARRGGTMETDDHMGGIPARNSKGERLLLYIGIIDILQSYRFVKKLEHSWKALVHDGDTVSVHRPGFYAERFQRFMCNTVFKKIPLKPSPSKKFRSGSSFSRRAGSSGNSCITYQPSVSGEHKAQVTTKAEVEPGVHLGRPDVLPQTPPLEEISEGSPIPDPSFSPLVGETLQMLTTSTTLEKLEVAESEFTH
UniProt Q86YI8: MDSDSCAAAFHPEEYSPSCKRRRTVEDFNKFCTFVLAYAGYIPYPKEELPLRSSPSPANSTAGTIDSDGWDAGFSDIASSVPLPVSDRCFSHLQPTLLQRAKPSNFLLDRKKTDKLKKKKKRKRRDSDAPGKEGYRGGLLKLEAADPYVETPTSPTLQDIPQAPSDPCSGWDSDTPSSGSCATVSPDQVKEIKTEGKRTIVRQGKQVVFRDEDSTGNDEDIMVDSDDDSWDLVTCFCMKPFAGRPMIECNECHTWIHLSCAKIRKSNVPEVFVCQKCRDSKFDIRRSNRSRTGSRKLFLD
UniProt Q16512: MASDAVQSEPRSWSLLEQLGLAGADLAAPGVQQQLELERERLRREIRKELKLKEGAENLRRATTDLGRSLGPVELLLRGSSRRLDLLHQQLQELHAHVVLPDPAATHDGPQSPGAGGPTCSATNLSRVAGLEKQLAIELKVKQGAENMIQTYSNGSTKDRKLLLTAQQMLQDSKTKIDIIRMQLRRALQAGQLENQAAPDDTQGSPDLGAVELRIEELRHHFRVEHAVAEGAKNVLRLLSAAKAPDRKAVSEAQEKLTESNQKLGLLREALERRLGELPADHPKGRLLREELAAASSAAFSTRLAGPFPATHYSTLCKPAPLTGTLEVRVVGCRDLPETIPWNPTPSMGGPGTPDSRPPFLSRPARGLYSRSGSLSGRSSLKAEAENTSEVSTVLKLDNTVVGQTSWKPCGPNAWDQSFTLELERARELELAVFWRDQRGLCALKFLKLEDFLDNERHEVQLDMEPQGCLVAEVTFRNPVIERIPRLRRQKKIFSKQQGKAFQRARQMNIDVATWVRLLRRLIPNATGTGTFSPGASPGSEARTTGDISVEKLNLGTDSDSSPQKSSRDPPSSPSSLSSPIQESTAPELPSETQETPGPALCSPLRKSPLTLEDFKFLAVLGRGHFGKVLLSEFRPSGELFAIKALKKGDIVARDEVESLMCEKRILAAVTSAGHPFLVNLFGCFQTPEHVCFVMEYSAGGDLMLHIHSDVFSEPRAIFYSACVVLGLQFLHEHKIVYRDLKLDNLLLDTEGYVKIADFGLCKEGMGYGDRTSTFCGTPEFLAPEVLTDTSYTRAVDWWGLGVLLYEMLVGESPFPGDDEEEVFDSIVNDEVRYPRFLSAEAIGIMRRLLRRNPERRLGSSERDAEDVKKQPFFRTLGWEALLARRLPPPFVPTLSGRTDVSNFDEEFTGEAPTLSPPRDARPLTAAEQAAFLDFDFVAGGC
UniProt Q8IZ21: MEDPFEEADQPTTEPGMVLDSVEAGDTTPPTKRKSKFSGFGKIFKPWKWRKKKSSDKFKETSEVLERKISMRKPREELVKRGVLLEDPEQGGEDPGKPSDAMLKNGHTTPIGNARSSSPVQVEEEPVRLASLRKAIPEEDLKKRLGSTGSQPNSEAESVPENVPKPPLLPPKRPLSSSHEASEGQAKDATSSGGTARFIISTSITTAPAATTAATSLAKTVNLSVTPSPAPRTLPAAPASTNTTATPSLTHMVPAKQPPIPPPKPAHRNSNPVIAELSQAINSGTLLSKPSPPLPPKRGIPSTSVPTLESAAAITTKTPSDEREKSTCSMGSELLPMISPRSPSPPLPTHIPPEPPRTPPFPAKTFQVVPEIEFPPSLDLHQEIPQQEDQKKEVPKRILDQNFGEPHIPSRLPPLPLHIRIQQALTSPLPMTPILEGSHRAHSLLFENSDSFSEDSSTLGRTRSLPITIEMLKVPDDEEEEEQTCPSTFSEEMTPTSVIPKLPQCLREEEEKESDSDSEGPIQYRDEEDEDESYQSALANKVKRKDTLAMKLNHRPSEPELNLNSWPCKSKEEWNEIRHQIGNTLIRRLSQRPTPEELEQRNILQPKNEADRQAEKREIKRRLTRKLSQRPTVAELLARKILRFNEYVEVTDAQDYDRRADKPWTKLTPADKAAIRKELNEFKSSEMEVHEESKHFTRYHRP
UniProt Q9H814, whole entry, looked up: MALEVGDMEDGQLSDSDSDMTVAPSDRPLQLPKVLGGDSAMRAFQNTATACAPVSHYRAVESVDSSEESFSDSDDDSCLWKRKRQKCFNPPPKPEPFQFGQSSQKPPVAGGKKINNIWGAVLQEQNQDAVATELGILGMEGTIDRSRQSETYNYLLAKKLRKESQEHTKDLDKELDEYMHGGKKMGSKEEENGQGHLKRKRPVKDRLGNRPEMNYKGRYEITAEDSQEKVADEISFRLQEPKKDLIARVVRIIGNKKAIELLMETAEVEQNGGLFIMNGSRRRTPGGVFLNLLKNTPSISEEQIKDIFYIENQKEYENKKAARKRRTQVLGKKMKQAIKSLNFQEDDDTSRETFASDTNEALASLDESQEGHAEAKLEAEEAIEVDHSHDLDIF

Assays:
Assay in all cases: log2 fold change, soluble protein after heating vs DMSO (PISA); higher = thermal stabilisation; K562 lysate, 10 uM; active = over 0.2 and 3.5 SD of the protein, either way, in both replicates (recomputed)
lapatinib = compound: CS(=O)(=O)CCNCc1ccc(-c2ccc3ncnc(Nc4ccc(OCc5cccc(F)c5)c(Cl)c4)c3c2)o1 [lapatinib]
How it was run: (§1)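 Pellets of K562 cells were dounce-homogenised in PBS pH 7.4 with 1 mM MgCl2, and the crude extract was held at 1 mg/mL protein for a 30 min treatment with 10 μM compound. Aliquots were heated for 3 min over 48°C-58°C and pooled before NP-40 was added to 0.5% at 4°C. The supernatant from 21,000xg for 90 min was quantified by TMTpro 16plex LC-MS/MS with channel sums equalised. Values are reported from duplicates as log-two fold change in thermal stability relative to solvent controls.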

pictilisib = compound: CS(=O)(=O)N1CCN(Cc2cc3nc(-c4cccc5[nH]ncc45)nc(N4CCOCC4)c3s2)CC1 [pictilisib]
How it was run: as §1

crizotinib = compound: C[C@@H](Oc1cc(-c2cnn(C3CCNCC3)c2)cnc1N)c1c(Cl)ccc(F)c1Cl [crizotinib]
How it was run: as §1

duvelisib = compound: C[C@H](Nc1ncnc2nc[nH]c12)c1cc2cccc(Cl)c2c(=O)n1-c1ccccc1 [duvelisib]
How it was run: as §1

tozasertib = compound: Cc1cc(Nc2cc(N3CCN(C)CC3)nc(Sc3ccc(NC(=O)C4CC4)cc3)n2)n[nH]1 [tozasertib]
How it was run: as §1

doramapimod = compound: Cc1ccc(-n2nc(C(C)(C)C)cc2NC(=O)Nc2ccc(OCCN3CCOCC3)c3ccccc23)cc1 [doramapimod]
How it was run: as §1

bafetinib = compound: Cc1ccc(NC(=O)c2ccc(CN3CC[C@H](N(C)C)C3)c(C(F)(F)F)c2)cc1Nc1nccc(-c2cncnc2)n1 [bafetinib]
How it was run: as §1

[1] = compound: C[C@H](C1=CC=C(C=C1)C(=O)NC2=C3C=CNC3=NC=C2)N
How it was run: as §1

gandotinib = compound: Cc1cc(Nc2cc(CN3CCOCC3)c3nc(C)c(Cc4ccc(Cl)cc4F)n3n2)n[nH]1 [gandotinib]
How it was run: as §1

[2] = compound: Cc1cccc(CC(=O)N2CCc3c2ccc(-c2cn(C)c4ncnc(N)c24)c3F)n1
How it was run: as §1

| Target | log2 fold change (lapatinib) | log2 fold change (pictilisib) | log2 fold change (crizotinib) | log2 fold change (duvelisib) | log2 fold change (tozasertib) | log2 fold change (doramapimod) | log2 fold change (bafetinib) | log2 fold change [1] | log2 fold change (gandotinib) | log2 fold change [2] |
| --- | --- | --- | --- | --- | --- | --- | --- | --- | --- | --- |
| PIGL (UniProt Q9Y2B2) | inactive: -0.06 | inactive: 0.031 | inactive: 0.041 | inactive: -0.14 | inactive: -0.069 | inactive: -0.192 | inactive: -0.038 |  |  |  |
| PIGO (UniProt Q8TEQ8) | inactive: 0.047 | inactive: 0.133 | inactive: -0.02 | inactive: 0.076 | inactive: 0.117 | inactive: -0.186 | inactive: -0.026 | inactive: 0.019 | inactive: -0.193 | inactive: 0.037 |
| PHC3 isoform 7 (UniProt Q8NDX5) | inactive: -0.031 |  | inactive: 0.06 | inactive: 0.072 | inactive: 0.133 | inactive: -0.101 |  | inactive: -0.044 | inactive: -0.041 | inactive: 0.141 |
| PHPT1 (UniProt Q9NRX4) | inactive: -0.011 | inactive: 0.003 | inactive: 0.048 | inactive: -0.013 | inactive: 0.029 | inactive: 0.017 | inactive: 0.02 | inactive: 0.044 | inactive: -0.026 | inactive: -0.063 |
| PIGA (UniProt P37287) | inactive: -0.015 | inactive: -0.164 | inactive: -0.048 | inactive: 0.004 | inactive: 0.009 | inactive: 0.057 | inactive: -0.066 | inactive: -0.099 | inactive: -0.001 | inactive: 0.101 |
| PLCB3 (UniProt Q01970) | inactive: -0.011 | inactive: -0.005 | inactive: 0.014 | inactive: 0.011 | inactive: 0.028 | inactive: -0.026 | inactive: -0.019 | inactive: 0.017 | inactive: -0.008 | inactive: -0.001 |
| PI4KA (UniProt P42356) | inactive: -0.03 | inactive: 0.097 | inactive: -0.005 | inactive: 0.189 | inactive: 0.013 | inactive: -0.002 | inactive: -0.075 | inactive: -0.043 | inactive: -0.033 | inactive: 0.073 |
| PIK3C2A (UniProt O00443) | inactive: 0.004 | inactive: -0.02 | inactive: -0.027 | inactive: -0.005 | inactive: -0.201 | inactive: -0.069 | inactive: -0.017 |  |  |  |
| PIGM (UniProt Q9H3S5) | inactive: -0.073 | inactive: 0 | inactive: -0.049 |  | inactive: -0.086 | inactive: 0.084 | inactive: -0.11 |  |  |  |
| PLCG2 (UniProt P16885) | inactive: -0.027 | inactive: 0.061 | inactive: 0.046 |  | inactive: 0.048 | inactive: -0.069 | inactive: -0.16 | inactive: -0.369 | inactive: -0.279 | inactive: 0.058 |
| PGK2 (UniProt P07205) | inactive: 0.026 |  |  |  | inactive: 0.292 |  |  | inactive: 0.098 | inactive: -0.044 | inactive: -0.045 |
| PKIB isoform 2 (UniProt Q9C010) | inactive: 0.088 |  |  |  |  |  |  | inactive: 0.12 | inactive: -0.156 | inactive: 0.128 |
| PIGH (UniProt Q14442) | inactive: -0.06 | inactive: 0.052 | inactive: 0.066 |  |  | inactive: -0.055 | inactive: -0.069 | inactive: -0.05 | inactive: 0.111 | inactive: 0.032 |
| PIP5K1A (UniProt Q99755) | inactive: -0.117 | inactive: 0.07 | inactive: -0.168 | inactive: -0.043 |  | inactive: 0.093 | inactive: -0.062 | inactive: 0.03 | inactive: -0.013 | inactive: -0.034 |
| PHF14 (UniProt O94880) | inactive: 0.199 | inactive: -0.049 |  | inactive: 0.024 | inactive: -0.117 |  | inactive: -0.013 |  |  |  |
| PHF13 (UniProt Q86YI8) | inactive: -0.033 | inactive: 0.022 | inactive: -0.235 |  |  | inactive: 0.123 | inactive: -0.113 | inactive: -0.517 | inactive: 0.352 | inactive: 0.479 |

Record cards, as listed above. Values in the order: log2 fold change (lapatinib)	log2 fold change (pictilisib)	log2 fold change (crizotinib)	log2 fold change (duvelisib)	log2 fold change (tozasertib)	log2 fold change (doramapimod)	log2 fold change (bafetinib)	log2 fold change [1]	log2 fold change (gandotinib)	log2 fold change [2]
PIGO (UniProt Q8TEQ8) is entered as inactive: 0.047	inactive: 0.133	inactive: -0.02	inactive: 0.076	inactive: 0.117	inactive: -0.186	inactive: -0.026	inactive: 0.019	inactive: -0.193	inactive: 0.037
PHPT1 (UniProt Q9NRX4) is entered as inactive: -0.011	inactive: 0.003	inactive: 0.048	inactive: -0.013	inactive: 0.029	inactive: 0.017	inactive: 0.02	inactive: 0.044	inactive: -0.026	inactive: -0.063

Next part:

| Target | log2 fold change (lapatinib) | log2 fold change (pictilisib) | log2 fold change (crizotinib) | log2 fold change (duvelisib) | log2 fold change (tozasertib) | log2 fold change (doramapimod) | log2 fold change (bafetinib) | log2 fold change [1] | log2 fold change (gandotinib) | log2 fold change [2] |
| --- | --- | --- | --- | --- | --- | --- | --- | --- | --- | --- |
| PLA2G4B isoform 6 (UniProt P0C869) | inactive: -0.001 | inactive: -0.032 | inactive: -0.49 | inactive: -0.038 | inactive: -0.009 | inactive: 0 | inactive: -0.133 | inactive: -0.015 | inactive: 0.069 | inactive: 0.086 |
| PLAU (UniProt P00749) | inactive: -0.03 |  |  | inactive: -0.209 | inactive: 0.14 |  |  |  |  |  |
| PKN1 isoform 2 (UniProt Q16512) | inactive: 0.038 | inactive: -0.005 | inactive: -0.032 | inactive: -0.014 | inactive: -0.005 | inactive: 0.108 | inactive: -0.069 | inactive: 0.095 | inactive: -0.233 | inactive: 0.04 |
| PIP5K1C isoform 3 (UniProt O60331) | inactive: -0.077 | inactive: 0.017 | inactive: -0.09 | inactive: 0.032 | inactive: -0.005 | inactive: 0.028 | inactive: 0.076 |  |  |  |
| PHACTR4 isoform 2 (UniProt Q8IZ21) | inactive: -0.015 | inactive: -0.014 | inactive: -0.005 | inactive: 0 | inactive: -0.03 | inactive: -0.003 | inactive: 0.022 | active: 0.764 | inactive: -0.121 | inactive: -0.196 |
| PHAX (UniProt Q9H814) | inactive: 0.009 | inactive: -0.02 | inactive: -0.001 | inactive: 0.034 | inactive: 0.002 | inactive: 0.037 | inactive: -0.004 | inactive: -0.034 | inactive: 0.08 | inactive: -0.017 |
| PHKG1 isoform 2 (UniProt Q16816) | inactive: -0.166 |  | inactive: 0.305 | inactive: -0.042 | inactive: -0.172 | inactive: 0.038 |  | inactive: -0.553 | inactive: 0.655 | inactive: 0.216 |
| PIGN (UniProt O95427) | inactive: -0.16 |  |  | inactive: -0.005 | inactive: 0.116 |  |  |  |  |  |
| PGM3 (UniProt D6RCQ8) | inactive: 0.185 | inactive: -0.415 |  |  |  |  | inactive: -0.391 |  |  |  |
| PLA2G15 (UniProt Q8NCC3) | inactive: -0.018 | inactive: -0.018 | inactive: -0.025 | inactive: 0.021 | inactive: -0.024 | inactive: -0.063 | inactive: -0.051 | inactive: -0.047 | inactive: 0.049 | inactive: 0.048 |
| PIK3CD (UniProt O00329) | inactive: -0.043 | inactive: 0.142 | inactive: -0.037 | active: 0.477 |  | inactive: 0.03 | inactive: -0.136 | inactive: 0.035 | inactive: 0.389 | inactive: -0.016 |
| PIGX isoform 2 (UniProt Q8TBF5) | inactive: -0.117 | inactive: 0.054 | inactive: -0.008 | inactive: 0 | inactive: -0.034 | inactive: -0.024 | inactive: -0.039 | inactive: -0.072 | inactive: 0.056 | inactive: 0.028 |
| PLD3 (UniProt Q8IV08) | inactive: -0.013 | inactive: -0.029 | inactive: -0.052 | inactive: 0.028 | inactive: 0 | inactive: 0.044 | inactive: 0.003 | inactive: -0.063 | inactive: 0.029 | inactive: 0.087 |
| PHGDH, A0A286YFE1 | inactive: -0.214 | inactive: 0.114 |  | inactive: 0.244 |  |  | inactive: -0.313 |  |  |  |
| PIK3CG (UniProt P48736) |  |  | inactive: -0.128 | inactive: 0.183 | inactive: -0.038 | inactive: 0.04 | inactive: -0.111 | inactive: -0.158 | inactive: 0.14 | inactive: 0.075 |
